Results on 3 substances are retold here after publication PMC6322577.

Assay [1] deals with T1, BD-PevD1 (Verticillium dahliae) (UniProt G2WWV6).
T1 sequence: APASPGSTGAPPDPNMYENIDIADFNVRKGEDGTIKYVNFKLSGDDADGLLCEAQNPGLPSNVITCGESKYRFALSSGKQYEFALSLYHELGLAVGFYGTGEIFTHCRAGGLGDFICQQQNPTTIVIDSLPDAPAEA
The experiment in a line: two-hybrid; Matchmaker Gold Yeast Two-Hybrid; bait pGBKT7, prey pGADT7; growth on SD/–Trp/–Leu/–His/–Ade (QDO).

The target in assay [2] is T2, BD-PevD1b (Verticillium dahliae) (UniProt G2WWV6).
T2 sequence: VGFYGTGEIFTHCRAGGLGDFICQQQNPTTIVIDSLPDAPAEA
The description is as above.

Assay [3] has as its target T3, PevD1-HA (Verticillium dahliae) (UniProt G2WWV6).
T3 sequence: T1 sequence
The experiment in a line: pull-down; two recombinant proteins mixed, 2 h at 4 °C, Anti-HA Affinity Gel beads, washed five times, eluted, western blot; both purified.

Assay [4] deals with T4, PevD1b (Verticillium dahliae) (UniProt G2WWV6).
T4 sequence: T2 sequence
The description is as above.

The target in assay [5] is T3, PevD1-HA (Verticillium dahliae). The experiment in a line: pull-down; PevD1 mixed with concentrated protein extract (50 mM Tris, 200 mM NaCl, 1% Triton X-100, pH 8.0) of leaves or roots of cotton 4 d after inoculation with V. dahliae, 2 h at 4 °C, Anti-HA Affinity Gel beads; SDS-PAGE, band identified by mass spectrometry; only the target purified.

Results are given in words; binding and its absence hold for the method and conditions named. A result given as binding can be weak or reduced; the word gives no strength. For some assays here: Tags and fused reporters may be left off the sequences shown. For some assays here: Binding seen in cells or lysates may run through a third protein.

On to AD-GhPR5 (Gossypium hirsutum), for which the binding entry in assay [1] and in assay [2] was “binds” throughout. Turning to GhPR5-His (Gossypium hirsutum), the binding result in assay [3] and in assay [4] was “binds” each time. For the substance “Gossypium hirsutum pathogenesis-related protein 5 (GhPR5), endogenous”, the binding result in assay [5] is on record as “binds”.
